{"source": "patent US20050249668A1", "about": "“Nir-fluorescent cyanine dyes, their synthesis and biological use” (priority 2002, published 2005)", "assay": "NIRF reflectance imaging of equimolar dyes in 96-well plate", "format": "physicochemical", "conditions": "for detectability in fluorescence imaging system: 0.16 nmole in 200 μl; for signal intensity relative to ICG: equimolar, 800 nm channel", "key": {"[1]": {"conditions": "700 nm channel (610-650 nm excitation, 680-720 nm emission)"}, "[2]": {"conditions": "800 nm channel (750-770 nm excitation, 800-820 nm emission)"}}}
{"smiles": "CC[N+]1=C(C=CC=CC=C2N(CCCCS(=O)(=O)[O-])c3ccc(C(=O)O)cc3C2(C)C)C(C)(C)c2c1ccc1c(S(=O)(=O)[O-])cc(S(=O)(=O)[O-])cc21.[K+].[K+]", "note": "[NIR2]", "values": [{"measurement": "detectability in fluorescence imaging system", "setting": "[1]", "result": "detectable"}]}
{"smiles": "CC1(C)C(=C/C=C/C=C/C2=[N+](CCCCS(=O)(=O)[O-])c3ccc(S(=O)(=O)[O-])cc3C2(C)C)N(CCCCS(=O)(=O)[O-])c2ccc(C(=O)O)cc21.[K+].[K+]", "note": "[NIR4]", "values": [{"measurement": "detectability in fluorescence imaging system", "setting": "[1]", "result": "detectable"}]}
{"smiles": "CC[N+]1=C(C=CC=CC=CC=C2N(CCCCS(=O)(=O)[O-])c3ccc(C(=O)O)cc3C2(C)C)C(C)(C)c2c1ccc1c(S(=O)(=O)[O-])cc(S(=O)(=O)[O-])cc21.[K+].[K+]", "note": "[NIR1]", "values": [{"measurement": "detectability in fluorescence imaging system", "setting": "[2]", "result": "detectable"}, {"measurement": "signal intensity relative to ICG", "result": 7, "unit": "fold"}]}
{"smiles": "CC1(C)C(=CC=CC=CC=CC2=[N+](CCCCS(=O)(=O)[O-])c3ccc(S(=O)(=O)[O-])cc3C2(C)C)N(CCCCS(=O)(=O)[O-])c2ccc(C(=O)O)cc21.[K+].[K+]", "note": "[NIR3]", "values": [{"measurement": "detectability in fluorescence imaging system", "setting": "[2]", "result": "detectable"}, {"measurement": "signal intensity relative to ICG", "result": 12, "unit": "fold"}]}
